Test results taken from PMC12400318 (Biochemical Journal, 2025).
These are yes or no findings as the source states them, for the method shown. Some results given as binding are weak or reduced against the parent protein; the word gives no strength. Sequences can lack the tags named with a protein.

T1: Thermosipho melanesiensis CtfA (alpha subunit of acetoacetyl-CoA:acetate CoA transferase CtfAB), N-terminal 6x histidine tag (Thermosipho melanesiensis) (UniProt A6LM40)
T1 sequence: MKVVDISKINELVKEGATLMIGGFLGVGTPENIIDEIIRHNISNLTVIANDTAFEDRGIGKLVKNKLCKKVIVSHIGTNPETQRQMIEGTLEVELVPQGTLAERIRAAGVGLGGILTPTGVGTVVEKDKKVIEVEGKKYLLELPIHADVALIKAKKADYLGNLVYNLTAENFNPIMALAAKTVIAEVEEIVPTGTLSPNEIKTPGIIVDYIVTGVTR


Key:
[1] = biological target: T1, Thermosipho melanesiensis CtfA (alpha subunit of acetoacetyl-CoA:acetate CoA transferase CtfAB), N-terminal 6x histidine tag (Thermosipho melanesiensis); experiment: SEC; subunits co-expressed in E. coli; after heat treatment and nickel affinity by the His6 tag on CtfA, HiLoad Superdex 26/600 200 pg in 300 mM NaCl, 50 mM NaH2PO4, 100 mM Na2SO4, 20% glycerol, pH 8.0; fractions analysed by SDS-PAGE; both purified
[2] = biological target: T1, Thermosipho melanesiensis CtfA (alpha subunit of acetoacetyl-CoA:acetate CoA transferase CtfAB), N-terminal 6x histidine tag (Thermosipho melanesiensis); experiment: crystal structure; hanging drop, purified co-expressed CtfAB 5-6 mg/mL in 10 mM MOPS, 5% glycerol, 50 mM Na2SO4, 50 mM NaCl, 1 mM DTT, pH 7.5; reservoir 100 mM Na acetate pH 4.9-5.5, 6-10% PEG 3350; F42T/S45C co-crystal with 5-10 mM acetyl-CoA; space group P4(1)2(1)2; both purified

| binding [1] | binding [2] | Binder |
| --- | --- | --- |
| binds | binds | Thermosipho melanesiensis CtfB (beta subunit of acetoacetyl-CoA:acetate CoA transferase CtfAB), wild type, untagged (enzyme, UniProt A6LM39 1-214) MNPKEKIAIRVAQELKKGQLVNLGIGLPTLVANYIPKDIHVFFQSENGIIGMGPAPKEGYENSDLTNAGASYITALPGAMTFDSAFSFGIIRGGHLDVTVLGGLQVDEEGHLANWMIPGKMIPGMGGAMDLVTGAKKVIVAMTHTAKGTPKIVKKCTLPLTSIRKVDLIVTELAVIEPTDEGLLLKEISKETTLDEVLKLTEAKLIIADDLKIF |
| – | binds | Thermosipho melanesiensis CtfB (beta subunit) F42T/S45C mutant, untagged (enzyme, UniProt A6LM39 1-214) MNPKEKIAIRVAQELKKGQLVNLGIGLPTLVANYIPKDIHVTFQCENGIIGMGPAPKEGYENSDLTNAGASYITALPGAMTFDSAFSFGIIRGGHLDVTVLGGLQVDEEGHLANWMIPGKMIPGMGGAMDLVTGAKKVIVAMTHTAKGTPKIVKKCTLPLTSIRKVDLIVTELAVIEPTDEGLLLKEISKETTLDEVLKLTEAKLIIADDLKIF |
| – | binds | Thermosipho melanesiensis CtfB (beta subunit) E46D mutant, untagged (enzyme, UniProt A6LM39 1-214) MNPKEKIAIRVAQELKKGQLVNLGIGLPTLVANYIPKDIHVFFQSDNGIIGMGPAPKEGYENSDLTNAGASYITALPGAMTFDSAFSFGIIRGGHLDVTVLGGLQVDEEGHLANWMIPGKMIPGMGGAMDLVTGAKKVIVAMTHTAKGTPKIVKKCTLPLTSIRKVDLIVTELAVIEPTDEGLLLKEISKETTLDEVLKLTEAKLIIADDLKIF |
| – | binds | Thermosipho melanesiensis CtfB (beta subunit) E46S mutant, untagged (enzyme, UniProt A6LM39 1-214) MNPKEKIAIRVAQELKKGQLVNLGIGLPTLVANYIPKDIHVFFQSSNGIIGMGPAPKEGYENSDLTNAGASYITALPGAMTFDSAFSFGIIRGGHLDVTVLGGLQVDEEGHLANWMIPGKMIPGMGGAMDLVTGAKKVIVAMTHTAKGTPKIVKKCTLPLTSIRKVDLIVTELAVIEPTDEGLLLKEISKETTLDEVLKLTEAKLIIADDLKIF |
